From patent US20240254219A1 (University of California, published 2024)
No constants are given. Whether binding was seen depends on the method and setting. Some binding calls cover weakened binding; strength is not graded here.

Target: T1, LRP6 P3E3P4E4 truncation construct on HEK293 cells (human) (UniProt O75581)
T1 sequence (looked up): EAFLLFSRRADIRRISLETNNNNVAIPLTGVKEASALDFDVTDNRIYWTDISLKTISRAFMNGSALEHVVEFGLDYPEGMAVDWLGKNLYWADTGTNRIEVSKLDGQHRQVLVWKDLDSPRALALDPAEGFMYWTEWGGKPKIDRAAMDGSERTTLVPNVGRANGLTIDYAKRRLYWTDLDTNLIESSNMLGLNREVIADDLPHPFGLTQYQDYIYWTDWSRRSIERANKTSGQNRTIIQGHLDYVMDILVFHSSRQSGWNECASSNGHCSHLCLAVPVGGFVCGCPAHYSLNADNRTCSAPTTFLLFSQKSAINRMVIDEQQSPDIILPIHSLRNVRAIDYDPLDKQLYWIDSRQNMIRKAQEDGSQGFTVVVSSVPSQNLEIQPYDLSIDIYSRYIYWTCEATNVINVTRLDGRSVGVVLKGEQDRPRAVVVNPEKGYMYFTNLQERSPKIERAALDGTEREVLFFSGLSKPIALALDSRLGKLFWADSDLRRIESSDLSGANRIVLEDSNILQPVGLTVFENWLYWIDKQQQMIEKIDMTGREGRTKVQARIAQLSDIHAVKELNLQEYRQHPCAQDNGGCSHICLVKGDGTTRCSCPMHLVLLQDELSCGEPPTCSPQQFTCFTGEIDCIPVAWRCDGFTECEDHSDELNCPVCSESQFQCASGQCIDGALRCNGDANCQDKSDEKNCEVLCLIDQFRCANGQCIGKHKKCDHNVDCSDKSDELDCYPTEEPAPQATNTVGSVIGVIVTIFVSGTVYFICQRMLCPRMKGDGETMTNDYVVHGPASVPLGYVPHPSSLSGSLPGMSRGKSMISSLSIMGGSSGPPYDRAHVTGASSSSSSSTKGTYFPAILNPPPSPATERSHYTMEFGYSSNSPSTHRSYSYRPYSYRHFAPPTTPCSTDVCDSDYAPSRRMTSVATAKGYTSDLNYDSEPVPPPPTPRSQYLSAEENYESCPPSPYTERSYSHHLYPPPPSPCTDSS
Experiment: flow cytometry on GFP-positive HEK293 cells co-transfected with the LRP6 construct and a GFP construct

binding: binds
B1: 66 IgG (Wnt-agonist human monoclonal antibody 66) (antibody, V domains shown)
VH: QVQLLQSGGGLVQPGGSLRLSCAASGFTFSTYAMSWVRQAPGKGLEWVSTIGPSGSSTYYAYADSVKGRFTISRDNYKNMLYLQMNSLRAEDTAVYYCAKEGPNSGYFDFDYWGQGTLVTVSS
VL: EIVLTQSPSSLSASVGDRVTITCRASQSISTYLNWYQQKPGKAPKVLIYAASSLQSGVPSRISGSGSGTDFTLTISSLQPEDFATYYCQQSYSIPLTFGGGTKLEIK
notes: also called 66 antibody; agonist 66 IgG
